# These are yes or no findings as the source states them, for the method shown. Binding seen in cells or lysates may run through a third protein. Some entries that bind do so weakly or less than the wild type.
# By UniProt entry, the sequences of proteins in these tests, tags left out.
# UniProt Q14449: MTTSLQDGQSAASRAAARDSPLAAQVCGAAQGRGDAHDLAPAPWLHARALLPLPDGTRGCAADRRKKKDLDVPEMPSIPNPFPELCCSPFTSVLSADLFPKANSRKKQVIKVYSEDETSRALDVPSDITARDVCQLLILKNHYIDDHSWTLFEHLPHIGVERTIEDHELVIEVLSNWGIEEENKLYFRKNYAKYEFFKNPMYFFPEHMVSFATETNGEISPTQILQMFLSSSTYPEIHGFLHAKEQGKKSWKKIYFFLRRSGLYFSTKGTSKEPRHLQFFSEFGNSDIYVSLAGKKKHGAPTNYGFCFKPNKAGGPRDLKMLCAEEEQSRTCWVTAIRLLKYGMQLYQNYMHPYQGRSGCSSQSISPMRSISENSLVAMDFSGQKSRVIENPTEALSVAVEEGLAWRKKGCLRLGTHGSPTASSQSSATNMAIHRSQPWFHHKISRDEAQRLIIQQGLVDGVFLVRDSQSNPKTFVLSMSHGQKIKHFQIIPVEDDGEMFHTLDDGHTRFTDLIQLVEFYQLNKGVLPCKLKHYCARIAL
# UniProt Q53SF7: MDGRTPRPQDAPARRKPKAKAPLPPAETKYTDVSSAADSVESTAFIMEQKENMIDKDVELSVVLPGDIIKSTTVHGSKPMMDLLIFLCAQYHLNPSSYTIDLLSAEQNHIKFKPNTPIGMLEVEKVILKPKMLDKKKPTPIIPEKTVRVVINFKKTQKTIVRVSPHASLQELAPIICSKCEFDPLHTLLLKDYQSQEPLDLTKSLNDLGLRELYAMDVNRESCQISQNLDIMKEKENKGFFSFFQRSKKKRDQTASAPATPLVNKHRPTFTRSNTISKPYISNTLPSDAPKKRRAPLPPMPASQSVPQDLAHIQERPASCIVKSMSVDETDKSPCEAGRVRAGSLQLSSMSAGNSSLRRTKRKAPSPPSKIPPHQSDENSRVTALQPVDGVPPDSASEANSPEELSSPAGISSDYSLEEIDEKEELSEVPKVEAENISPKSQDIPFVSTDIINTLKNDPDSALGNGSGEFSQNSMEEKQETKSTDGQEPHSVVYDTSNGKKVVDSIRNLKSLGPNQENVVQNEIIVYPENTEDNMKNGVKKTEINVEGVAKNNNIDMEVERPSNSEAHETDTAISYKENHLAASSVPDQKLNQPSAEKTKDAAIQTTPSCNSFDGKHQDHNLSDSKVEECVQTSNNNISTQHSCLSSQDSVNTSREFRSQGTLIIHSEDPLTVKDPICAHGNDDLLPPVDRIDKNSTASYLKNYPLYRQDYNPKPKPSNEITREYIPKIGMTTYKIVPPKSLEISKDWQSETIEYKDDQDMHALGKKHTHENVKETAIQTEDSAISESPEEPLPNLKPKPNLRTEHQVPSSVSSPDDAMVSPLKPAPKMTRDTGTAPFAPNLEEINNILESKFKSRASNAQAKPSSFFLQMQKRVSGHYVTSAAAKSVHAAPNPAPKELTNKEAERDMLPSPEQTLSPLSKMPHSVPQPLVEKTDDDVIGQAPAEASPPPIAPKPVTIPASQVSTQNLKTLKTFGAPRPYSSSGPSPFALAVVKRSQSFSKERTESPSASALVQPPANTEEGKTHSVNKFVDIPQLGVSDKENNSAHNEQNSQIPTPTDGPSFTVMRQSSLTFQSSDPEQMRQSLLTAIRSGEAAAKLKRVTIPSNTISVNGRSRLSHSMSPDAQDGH
# Tests used:
# [1] = molecular target: Growth factor receptor-bound protein 14 (GRB14), endogenous in BGC-823 cells (human (endogenous in BGC-823)) (UniProt Q14449); experiment: co-IP; endogenous Co-IP in BGC-823 cells; bait and antibodies not told
# [2] = molecular target: Growth factor receptor-bound protein 14 (GRB14), exogenously expressed (human) (UniProt Q14449); experiment: co-IP; exogenous Co-IP; GRB14 and COBLL1 exogenously expressed in HEK293T cells transfected with the specified constructs; bait and antibodies not told
Substance,binding [1],binding [2]
"Cordon-bleu WH2 repeat protein like 1 (COBLL1), endogenous in BGC-823 cells (from UniProt Q53SF7 1-1128)",binds,–
"Cordon-bleu WH2 repeat protein like 1 (COBLL1), exogenously expressed (from UniProt Q53SF7 1-1128)",–,binds

# Source: paper PMC12048902
